Measurements: article PMC11053755
No constants are given. Whether binding was seen depends on the method and setting. Some binding calls cover weakened binding; strength is not graded here.

Target: OsSHMT1 (rice serine hydroxymethyltransferase 1) (rice (Oryza sativa)) (UniProt Q10D68)
Assay: two-hybrid; GAL4 system; OsSHMT coding regions in pGBKT7 (BD) and pGADT7 (AD), co-transfected into yeast AH109; grown on SD/-Leu/-Trp, then SD/-Leu/-Trp/-His/-Ade to verify interactions

binding: binds
B1: OsSHMT1 (rice serine hydroxymethyltransferase 1) (enzyme, UniProt Q10D68 1-513)
chain: MAMATALRKLSSDALRRQPLSRITPLYYMASLPATEERSGVTWPKQLNAPLEEVDPEIADIIEHEKARQWKGLELIPSENFTSVSVMQAVGSVMTNKYSEGYPGARYYGGNEYIDMAESLCQKRALEAFRLDPAKWGVNVQPLSGSPANFHVYTALLKPHERIMALDLPHGGHLSHGYQTDTKKISAVSIFFETMPYRLDESTGLIDYDQMEKSAVLFRPKLIVAGASAYARLYDYDRMRKVCDKQKAILLADMAHISGLVAAGVVPSPFDYADVVTTTTHKSLRGPRGAMIFYRKGVKGVNKQGKEVMYDFEDKINAAVFPGLQGGPHNHTITGLAVALKQATTPEYRAYQEQVMSNCAKFAQSLTAKGYELVSGGTDNHLVLVNLKSKGIDGSRVEKVLENVHIAANKNTVPGDVSAMVPGGIRMGTPALTSRGFVEEDFAKVADFFDAAVNLALKVKAAAGGTKLKDFVATLQSDSNIQSEIAKLRHDVEEYAKQFPTIGFEKETMKYKN
